Measured values reported in article PMC6686035.

Sequences of proteins named here, by UniProt entry; tags and fusion partners are left off. A change or cut given only in a name is not applied to a line headed by its entry.
UniProt P69913: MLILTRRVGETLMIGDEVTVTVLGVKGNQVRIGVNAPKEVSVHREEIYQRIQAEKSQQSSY

Biological target: CsrA-His6 (Escherichia coli) (UniProt P69913)
Assay: competition with a labelled probe
Conditions: unlabeled self competitor, EMSA: 0.5 nM RNA, 10 mM MgCl2, 100 mM KCl, 32.5 ng yeast RNA, 20 mM DTT, 7.5% glycerol, 4 U SUPERasin, 37 C 30 min (pH not stated), recombinant protein, protein details: His6 (C-terminal per name), label: 5'-32P
[1] = probe letters rebuilt from the primers and the genome

Sequence	binding result [1]	binding result
GGGUGGAAGCGAAGGAGUCAAAAAAUGAAAGGUGAUACUAAAGUUAUAAAUUAUCUCAACAAACUGUUGGGAAAUGAGCUUGU [bfr EMSA transcript]	binds	–
GGGUUAAUUACUGGGACAUAACAUCAAGAGGAUAUGAAAUUAUGAGUACCGC [dps EMSA transcript]	–	binds
GAAGAUCAUCGUCAGAAUUGACUCCACGAUCACAUUUCGGACCGGCAGAAAGGAAUUAUUCUGCAAACAGUAAUUAUGGUGUUUUGAUUUAUCUUGCACCUCUCCACUUCUGGAUAUAAGGAUAUUAGGU [ftnB EMSA transcript]	binds	–

For at least one entry, the source does not settle the construct or the ends of the probe. At least one verdict rests on a figure or table, not on a statement of the authors.
